Data on seven molecules can be found in paper PMC7933334, “The methyltransferase SETD2 couples transcription and splicing by engaging mRNA processing factors through its SHI domain” (Nature Communications, 2021).

The chains behind the UniProt entries cited, without tags or fusion partners.
UniProt P11940: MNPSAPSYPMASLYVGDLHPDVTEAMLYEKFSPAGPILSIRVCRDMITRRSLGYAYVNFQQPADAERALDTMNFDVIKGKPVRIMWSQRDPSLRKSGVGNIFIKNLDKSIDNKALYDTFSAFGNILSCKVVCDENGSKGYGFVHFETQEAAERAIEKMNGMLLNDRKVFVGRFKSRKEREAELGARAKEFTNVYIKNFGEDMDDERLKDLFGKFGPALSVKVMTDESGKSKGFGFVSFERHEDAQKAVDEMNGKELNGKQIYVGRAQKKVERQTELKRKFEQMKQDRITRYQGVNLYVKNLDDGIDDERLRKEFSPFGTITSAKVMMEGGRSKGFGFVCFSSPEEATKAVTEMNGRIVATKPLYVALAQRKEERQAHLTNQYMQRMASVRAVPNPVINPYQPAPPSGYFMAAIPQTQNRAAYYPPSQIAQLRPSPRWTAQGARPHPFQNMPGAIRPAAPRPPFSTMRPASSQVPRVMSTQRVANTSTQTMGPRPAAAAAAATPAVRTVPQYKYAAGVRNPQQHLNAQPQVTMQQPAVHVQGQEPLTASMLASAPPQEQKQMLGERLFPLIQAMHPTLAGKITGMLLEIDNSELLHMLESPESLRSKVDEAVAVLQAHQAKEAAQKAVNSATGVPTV
UniProt O75494: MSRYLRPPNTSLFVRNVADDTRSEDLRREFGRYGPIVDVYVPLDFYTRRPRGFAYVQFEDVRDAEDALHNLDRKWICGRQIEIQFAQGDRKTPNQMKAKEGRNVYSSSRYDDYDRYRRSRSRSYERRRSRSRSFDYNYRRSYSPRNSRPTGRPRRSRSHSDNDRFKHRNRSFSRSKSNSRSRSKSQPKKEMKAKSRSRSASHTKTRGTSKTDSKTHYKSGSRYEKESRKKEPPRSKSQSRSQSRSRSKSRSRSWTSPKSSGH
UniProt P09012: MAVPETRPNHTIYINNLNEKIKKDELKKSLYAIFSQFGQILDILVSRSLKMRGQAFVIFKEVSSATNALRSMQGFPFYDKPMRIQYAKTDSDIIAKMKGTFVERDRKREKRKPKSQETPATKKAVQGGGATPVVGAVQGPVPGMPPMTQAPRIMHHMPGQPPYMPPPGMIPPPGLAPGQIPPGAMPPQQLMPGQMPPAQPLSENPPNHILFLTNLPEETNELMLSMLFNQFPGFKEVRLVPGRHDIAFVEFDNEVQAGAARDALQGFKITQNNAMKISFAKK
UniProt P26599: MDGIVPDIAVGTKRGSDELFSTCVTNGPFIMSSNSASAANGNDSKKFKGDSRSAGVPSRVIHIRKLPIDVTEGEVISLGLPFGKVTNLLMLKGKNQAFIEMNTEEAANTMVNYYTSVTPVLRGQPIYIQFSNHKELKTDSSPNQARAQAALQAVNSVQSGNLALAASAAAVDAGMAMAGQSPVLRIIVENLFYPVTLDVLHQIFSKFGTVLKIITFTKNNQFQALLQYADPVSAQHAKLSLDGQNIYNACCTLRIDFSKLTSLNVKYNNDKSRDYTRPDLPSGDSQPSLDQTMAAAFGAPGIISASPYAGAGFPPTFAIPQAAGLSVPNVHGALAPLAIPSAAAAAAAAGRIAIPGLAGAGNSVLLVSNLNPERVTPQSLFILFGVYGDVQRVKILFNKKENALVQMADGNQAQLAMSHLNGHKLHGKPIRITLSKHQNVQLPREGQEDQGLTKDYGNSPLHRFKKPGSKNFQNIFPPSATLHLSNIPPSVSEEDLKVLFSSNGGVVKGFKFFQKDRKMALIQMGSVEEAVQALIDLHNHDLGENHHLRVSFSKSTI

Like-named read-outs stand apart in the source and are kept apart here. These are yes or no findings as the source states them, for the method shown. Binding seen in cells or lysates may run through a third protein. These calls come from enrichment with a bait or labelling near it, and not all partners need be listed. For some assays here: Tags and fused reporters may be left off the sequences shown.

Assay in all cases: affinity purification with mass spectrometry; Halo-tagged bait expressed in 293T; extract (150 mM NaCl, 1% Triton X-100, diluted 1:3) on Magne HaloTag beads overnight at 4 °C, wash with 300 mM NaCl, elution with AcTEV; MudPIT of endogenous co-purified proteins against a mock; lysate with or without RNase where stated; SETD2C also from cells treated with siRNA to hnRNP L
Experiment [1] deals with T1, Halo-SETD2 1404–2564 (SETD2C) (human) (UniProt Q9BYW2).
T1 sequence: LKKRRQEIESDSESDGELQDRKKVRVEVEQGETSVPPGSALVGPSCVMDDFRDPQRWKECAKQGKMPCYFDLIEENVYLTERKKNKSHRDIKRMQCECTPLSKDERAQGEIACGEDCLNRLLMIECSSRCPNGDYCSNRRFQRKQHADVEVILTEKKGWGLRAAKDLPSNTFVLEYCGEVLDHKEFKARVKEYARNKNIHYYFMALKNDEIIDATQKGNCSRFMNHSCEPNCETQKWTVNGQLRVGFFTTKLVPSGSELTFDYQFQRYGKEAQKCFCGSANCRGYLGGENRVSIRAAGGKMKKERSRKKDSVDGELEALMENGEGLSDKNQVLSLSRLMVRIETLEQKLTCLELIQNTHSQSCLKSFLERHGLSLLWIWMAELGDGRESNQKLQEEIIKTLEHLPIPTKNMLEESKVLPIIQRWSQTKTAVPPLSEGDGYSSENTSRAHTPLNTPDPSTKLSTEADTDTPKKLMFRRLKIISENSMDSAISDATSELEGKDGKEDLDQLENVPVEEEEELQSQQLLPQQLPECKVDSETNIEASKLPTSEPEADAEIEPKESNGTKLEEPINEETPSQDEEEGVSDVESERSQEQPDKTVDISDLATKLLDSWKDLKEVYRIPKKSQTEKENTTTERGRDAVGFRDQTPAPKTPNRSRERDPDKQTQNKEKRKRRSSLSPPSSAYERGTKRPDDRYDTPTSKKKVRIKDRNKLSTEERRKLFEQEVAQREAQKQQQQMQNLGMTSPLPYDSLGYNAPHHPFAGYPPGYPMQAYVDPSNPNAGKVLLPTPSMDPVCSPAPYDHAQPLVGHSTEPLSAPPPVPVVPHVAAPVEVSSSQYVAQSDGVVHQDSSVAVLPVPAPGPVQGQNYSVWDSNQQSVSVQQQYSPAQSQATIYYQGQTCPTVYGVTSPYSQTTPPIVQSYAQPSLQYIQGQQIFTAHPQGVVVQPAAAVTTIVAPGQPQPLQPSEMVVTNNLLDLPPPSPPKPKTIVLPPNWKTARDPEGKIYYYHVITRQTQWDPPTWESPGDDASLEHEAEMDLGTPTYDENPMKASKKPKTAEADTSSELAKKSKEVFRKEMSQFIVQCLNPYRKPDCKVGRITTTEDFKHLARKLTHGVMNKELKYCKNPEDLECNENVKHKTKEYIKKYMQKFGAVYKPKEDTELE

For experiment [2], the target named is T2, Halo-hnRNP L 162–321 (human) (UniProt P14866).
T2 sequence: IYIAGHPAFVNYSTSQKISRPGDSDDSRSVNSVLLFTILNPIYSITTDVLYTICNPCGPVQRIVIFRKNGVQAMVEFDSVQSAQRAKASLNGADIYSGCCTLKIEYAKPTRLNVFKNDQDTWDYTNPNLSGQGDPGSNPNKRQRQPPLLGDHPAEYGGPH

In experiment [3] the target is T3, Halo-tagged SETD2 fragment 1964–2263 (human) (UniProt Q9BYW2).
T3 sequence: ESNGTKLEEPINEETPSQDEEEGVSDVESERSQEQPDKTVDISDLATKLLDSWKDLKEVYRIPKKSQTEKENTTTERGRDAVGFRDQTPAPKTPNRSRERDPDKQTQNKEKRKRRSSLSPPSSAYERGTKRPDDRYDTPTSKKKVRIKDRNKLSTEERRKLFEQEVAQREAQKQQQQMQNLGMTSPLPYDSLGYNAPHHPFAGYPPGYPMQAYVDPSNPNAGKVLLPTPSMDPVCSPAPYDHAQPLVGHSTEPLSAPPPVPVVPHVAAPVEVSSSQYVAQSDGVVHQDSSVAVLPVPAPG

In experiment [4] the target is T1, Halo-SETD2 1404–2564 (SETD2C) (human). This is another data set of the same source.
In experiment [5] the target is Halo-FLAG-SETD2CΔSRI (human) (UniProt Q9BYW2).
In experiment [6] the target is T4, Halo-tagged SETD2 fragment 2164–2213 (human) (UniProt Q9BYW2).
T4 sequence: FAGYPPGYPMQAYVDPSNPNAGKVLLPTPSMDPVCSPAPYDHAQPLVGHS

For experiment [7], the target named is T5, Halo-SETD2 2114–2263 (human) (UniProt Q9BYW2).
T5 sequence: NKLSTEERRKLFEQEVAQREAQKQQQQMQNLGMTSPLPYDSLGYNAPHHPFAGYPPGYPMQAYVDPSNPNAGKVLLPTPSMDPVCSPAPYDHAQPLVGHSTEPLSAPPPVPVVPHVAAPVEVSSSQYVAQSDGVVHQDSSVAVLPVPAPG

In the case of “polyadenylate-binding protein 1 (from UniProt P11940 1-636)”, in experiment [1], the binding entry is listed as “binds”.

For “serine/arginine-rich splicing factor 10 (from UniProt O75494 1-262)”, the binding entry in experiment [1] was “binds”. Turning to “U1 small nuclear ribonucleoprotein A (from UniProt P09012 1-282)”, the binding entry in experiment [1] was “binds”. On the same count and under the same terms, to “polypyrimidine tract binding protein 1 (from UniProt P26599 1-557)” belongs “binds”.

B1: Med23 (protein, UniProt Q9ULK4 1-1368)
chain: METQLQSIFEEVVKTEVIEEAFPGMFMDTPEDEKTKLISCLGAFRQFWGGLSQESHEQCIQWIVKFIHGQHSPKRISFLYDCLAMAVETGLLPPRLVCESLINSDTLEWERTQLWALTFKLVRKIIGGVDYKGVRDLLKVILEKILTIPNTVSSAVVQQLLAAREVIAYILERNACLLPAYFAVTEIRKLYPEGKLPHWLLGNLVSDFVDTFRPTARINSICGRCSLLPVVNNSGAICNSWKLDPATLRFPLKGLLPYDKDLFEPQTALLRYVLEQPYSRDMVCNMLGLNKQHKQRCPVLEDQLVDLVVYAMERSETEEKFDDGGTSQLLWQHLSSQLIFFVLFQFASFPHMVLSLHQKLAGRGLIKGRDHLMWVLLQFISGSIQKNALADFLPVMKLFDLLYPEKEYIPVPDINKPQSTHAFAMTCIWIHLNRKAQNDNSKLQIPIPHSLRLHHEFLQQSLRNKSLQMNDYKIALLCNAYSTNSECFTLPMGALVETIYGNGIMRIPLPGTNCMASGSITPLPMNLLDSLTVHAKMSLIHSIATRVIKLAHAKSSVALAPALVETYSRLLVYMEIESLGIKGFISQLLPTVFKSHAWGILHTLLEMFSYRMHHIQPHYRVQLLSHLHTLAAVAQTNQNQLHLCVESTALRLITALGSSEVQPQFTRFLSDPKTVLSAESEELNRALILTLARATHVTDFFTGSDSIQGTWCKDILQTIMSFTPHNWASHTLSCFPGPLQAFFKQNNVPQESRFNLKKNVEEEYRKWKSMSNENDIITHFSMQGSPPLFLCLLWKMLLETDHINQIGYRVLERIGARALVAHVRTFADFLVYEFSTSAGGQQLNKCIEILNDMVWKYNIVTLDRLILCLAMRSHEGNEAQVCYFIIQLLLLKPNDFRNRVSDFVKENSPEHWLQNDWHTKHMNYHKKYPEKLYFEGLAEQVDPPVQIQSPYLPIYFGNVCLRFLPVFDIVIHRFLELLPVSKSLETLLDHLGGLYKFHDRPVTYLYNTLHYYEMHLRDRAFLKRKLVHAIIGSLKDNRPQGWCLSDTYLKCAMNAREENPWVPDDTYYCRLIGRLVDTMAGKSPGPFPNCDWRFNEFPNPAAHALHVTCVELMALAVSGKEVGNALLNVVLKSQPLVPRENITAWMNAIGLIITALPEPYWIVLHDRIVSVISSPSLTSETEWVGYPFRLFDFTACHQSYSEMSCSYTLALAHAVWHHSSIGQLSLIPKFLTEVLLPIVKTEFQLLYVYHLVGPFLQRFQQERTRCMIEIGVAFYDMLLNVDQCSTHLNYMDPICDFLYHMKYMFTGDSVKEQVEKIICNLKPALKLRLRFITHISKMEPAAVPPQAMNSGSPAPQSNQVPVSLPVTQ
In the case of B1, the binding result in experiment [2] is recorded as “binds”.

B2: hnRNP L (endogenous) (protein, UniProt P14866 1-589)
chain: MSRRLLPRAEKRRRRLEQRQQPDEQRRRSGAMVKMAAAGGGGGGGRYYGGGSEGGRAPKRLKTDNAGDQHGGGGGGGGGAGAAGGGGGGENYDDPHKTPASPVVHIRGLIDGVVEADLVEALQEFGPISYVVVMPKKRQALVEFEDVLGACNAVNYAADNQIYIAGHPAFVNYSTSQKISRPGDSDDSRSVNSVLLFTILNPIYSITTDVLYTICNPCGPVQRIVIFRKNGVQAMVEFDSVQSAQRAKASLNGADIYSGCCTLKIEYAKPTRLNVFKNDQDTWDYTNPNLSGQGDPGSNPNKRQRQPPLLGDHPAEYGGPHGGYHSHYHDEGYGPPPPHYEGRRMGPPVGGHRRGPSRYGPQYGHPPPPPPPPEYGPHADSPVLMVYGLDQSKMNCDRVFNVFCLYGNVEKVKFMKSKPGAAMVEMADGYAVDRAITHLNNNFMFGQKLNVCVSKQPAIMPGQSYGLEDGSCSYKDFSESRNNRFSTPEQAAKNRIQHPSNVLHFFNAPLEVTEENFFEICDELGVKRPSSVKVFSGKSERSSSGLLEWESKSDALETLGFLNHYQMKNPNGPYPYTLKLCFSTAQHAS
Regarding B2, the binding result in experiment [3], in experiment [4], in experiment [5], in experiment [6] and in experiment [7] was “binds” in each case.

B3: serine/arginine-rich splicing factor 3 (protein, UniProt P84103 1-164)
chain: MHRDSCPLDCKVYVGNLGNNGNKTELERAFGYYGPLRSVWVARNPPGFAFVEFEDPRDAADAVRELDGRTLCGCRVRVELSNGEKRSRNRGPPPSWGRRPRDDYRRRSPPPRRRSPRRRSFSRSRSRSLSRDRRRERSLSRERNHKPSRSFSRSRSRSRSNERK
As to B3, in experiment [4], the binding entry is reported as “binds”.
